Source: patent US8846012B2, “Melanin production inhibitor” (Pola Chemical Industries Inc., priority 2008, dated 2014)
At least one compound was matched to its structure with a doubt left. Some of these results come from one statement about several compounds together.

system: normal human melanocytes; assay: Melanin production inhibition test using cultured normal human melanocytes (14C-thiouracil incorporation); type: cell-based; details: concentrations that did not inhibit proliferation of cells
Procedure: The inhibitory effect on melanin production of the melanin production inhibitor of the present invention can be measured using thiouracil which is incorporated specifically into cells in a melanin synthesis process in the cells. For example, the amount of melanin production can be measured by measuring an amount of thiouracil incorporated into cells by measuring an amount of radiation with radiolabeled thiouracil.
The inhibitory effect on melanin production of Compound 1 was evaluated using 2-thiouracil (^14C-labeled 2-thiouracil was used in this test) which is incorporated specifically into melanin in an intracellular melanin synthesis process. Complete medium for culture of melanocytes (manufactured by Kurabo Industries Ltd.) was added to 15 wells in a 24-well plate in an amount of 2 mL per well, and normal human melanocytes (manufactured by Kurabo Industries Ltd.) were seeded into the wells at a concentration of 1.5×10^4 cells/cm^2. The cells were cultured in a 5% carbon dioxide atmosphere at 37° C. for 24 hours. Thereafter, the medium in all the wells was exchanged under the following conditions: fresh complete medium for culture of melanocytes (control) was used in three wells; each of complete medium for culture of melanocytes, which including Compound 1 at concentrations of 1.0 μM, 2.0 μM, and 4.0 μM, was used in a total of nine wells including three wells for each concentration; and complete medium for culture of melanocytes, each of which including arbutin (positive control) known as a melanin production inhibitor at a concentration of 0.5 mM (500 μM), was used in the other three wells. Further, 2-[2-^14C]thiouracil (^14C-labeled thiouracil) was added to each of these 15 wells at 0.25×10^−6 Ci (curie). Then, the cells were cultured for further 3 days under the same conditions as the above. After the completion of culture, the culture medium was removed from the wells, and the cells were washed with phosphate buffered physiological saline (PBS) and then separated from the bottoms of the wells with medium including trypsin and EDTA to prepare cell suspensions, followed by centrifugation to collect the cells. The number of the cells was counted using a hemocytometer. Thereafter, the amounts of ^14C-thiouracil in the cells collected from each well (0.25×10^−6 Ci) were measured using a liquid scintillation counter (ALOKA CO., LTD.). The percentages of an amount of radioactivity in the cells cultured in the medium including the test substances with respect to an amount of radioactivity in the cells collected from the well of the control were calculated as amounts of melanin (%). That is, as the amount of radioactivity incorporated into the cells is smaller, the amount of melanin is evaluated to be smaller, i.e., the melanin inhibition effect of the component added is evaluated to be larger.
Inhibitory effects on melanin production of Compounds 2 to 39 (however, the effects of Compound 9 and 15 were not measured) were examined in the same procedure as in Test Example 1.
These were examined in the same procedure as in Test Example 1.
Further, the results of melanin production inhibition by treatment with the respective test compounds, determined in the same procedure as in Test Example 1, are also shown in the table.

| Structure (SMILES) | inhibitory effect on melanin production (in words) |
| --- | --- |
| NCCOC(c1ccccc1)(c1ccccc1)c1ccccc1 [Compound 4, 2-(triphenylmethyloxy)ethylamine] | excellent inhibitory effects on melanin production |
| COc1ccc(C(O)(c2ccccc2)c2ccc(OC)cc2)cc1 [Compound 18, [bis(4-methoxyphenyl)phenyl]methanol] | excellent inhibitory effects on melanin production |
| Cc1ccc(C(O)(c2ccc(C)cc2)c2ccc(C)cc2)cc1 [Compound 22, tris(4-methylphenyl)methanol] | excellent inhibitory effects on melanin production |
| COc1ccc(C(OCCO)(c2ccccc2)c2ccccc2)cc1 [Compound 31, 2-[[diphenyl(4-methoxyphenyl)]methyloxy]ethanol] | excellent inhibitory effects on melanin production |
| Cc1ccc(C(c2ccc(C)cc2)(c2ccc(C)cc2)N2CCCCC2)cc1 [Compound 27, 1-[tris(4-methylphenyl)methyl]piperidine] | excellent inhibitory effects on melanin production |
| Cc1ccc(C(O)(c2ccccc2)c2ccc(C)cc2)cc1 [Compound 23, [bis(4-methylphenyl)phenyl]methanol] | excellent inhibitory effects on melanin production |
| OCCNC(c1ccccc1)(c1ccccc1)c1ccccc1 [Compound 3, 2-(triphenylmethylamino)ethanol] | excellent inhibitory effects on melanin production |
| c1ccc(C(c2ccccc2)(c2ccccc2)N2CCNCC2)cc1 [Compound 7, 1-(triphenylmethyl)piperazine] | excellent inhibitory effects on melanin production |
| COc1ccc(C(OCCN)(c2ccccc2)c2ccccc2)cc1 [Compound 35, 2-[[diphenyl (4-methoxyphenyl)]methyloxy]ethylamine] | excellent inhibitory effects on melanin production |
| c1ccc(C(c2ccccc2)(c2ccccc2)N2CCOCC2)cc1 [Compound 8, N-(triphenylmethyl)morpholine] | excellent inhibitory effects on melanin production |
| O[C@@H]1CCN(C(c2ccccc2)(c2ccccc2)c2ccccc2)C1 [Compound 12, (R)-1-triphenylmethyl-3-pyrrolidinol] | excellent inhibitory effects on melanin production |
| OC(c1ccccc1)c1ccc2ccccc2c1 (stereo not drawn) [Compound 13, [(naphthyl)phenyl]methanol] | excellent inhibitory effects on melanin production |
| OCCN(CCO)C(c1ccccc1)(c1ccccc1)c1ccccc1 [Compound 37, N,N-[bis(2-hydroxyethyl)]-N-(triphenylmethyl)amine] | excellent inhibitory effects on melanin production |
| c1ccc(C(c2ccccc2)(c2ccccc2)n2ccnc2)cc1 [Compound 1, 1-(triphenylmethyl)imidazole] | concentration-dependent inhibitory effect on melanin production |
| O=C1CCC(=O)N1C(c1ccccc1)(c1ccccc1)c1ccccc1 [Compound 11, 1-(triphenylmethyl)succinimide] | excellent inhibitory effects on melanin production |
| Cc1ccc(C(O)c2ccc(C)cc2)cc1 [Compound 14, [bis(4-methylphenyl)]methanol] | excellent inhibitory effects on melanin production |
| COc1ccc(C(NCCO)(c2ccccc2)c2ccccc2)cc1 [Compound 33, 2-[[diphenyl(4-methoxyphenyl)]methylamino]ethanol] | excellent inhibitory effects on melanin production |

| Structure (SMILES) | inhibitory effect on melanin production (in words) |
| --- | --- |
| COc1ccc(C(c2ccc(OC)cc2)(c2ccc(OC)cc2)N2CCCCC2)cc1 [Compound 21, 1-[tris(4-methoxyphenyl)methyl]piperidine] | excellent inhibitory effects on melanin production |
| COc1ccc(C(OCCO)(c2ccccc2)c2ccc(OC)cc2)cc1 [Compound 32, 2-[bis(4-methoxyphenyl)phenylmethyloxy]ethanol] | excellent inhibitory effects on melanin production |
| Cc1ccc(C(O)(c2ccccc2)c2ccccc2)cc1 [Compound 24, [diphenyl(4-methylphenyl)]methanol] | excellent inhibitory effects on melanin production |
| COc1ccc(C(NCCO)(c2ccccc2)c2ccc(OC)cc2)cc1 [Compound 34, 2-[[bis(4-methoxyphenyl)phenyl]methylamino]ethanol] | excellent inhibitory effects on melanin production |
| CCNC(c1ccccc1)(c1ccccc1)c1ccccc1 [Compound 30, N-(triphenylmethyl)-N-ethylamine] | excellent inhibitory effects on melanin production |
| COc1ccc(C(O)c2ccc(OC)cc2)cc1 [Compound 15, [bis(4-methoxyphenyl)]methanol] | excellent inhibitory effects on melanin production |
| COc1ccc(C(c2ccccc2)(c2ccccc2)N2CCCCC2)cc1 [Compound 19, 1-[[(4-methoxyphenyl)diphenyl]methyl]piperidine] | excellent inhibitory effects on melanin production |
| c1ccc(C(c2ccccc2)(c2ccncc2)N2CCCCC2)cc1 [Compound 10, 1-{[diphenyl(4-pyridyl)]methyl}piperidine] | excellent inhibitory effects on melanin production |
| O=C(O)[C@H](CO)NC(c1ccccc1)(c1ccccc1)c1ccccc1 [Compound 39, N-(triphenylmethyl) serine] | excellent inhibitory effects on melanin production |
| OC(c1ccccc1)(c1ccccn1)c1ccccn1 [Compound 16, di(2-pyridyl)phenylmethanol] | excellent inhibitory effects on melanin production |
| OCCOC(c1ccccc1)(c1ccccc1)c1ccccc1 [Compound 2, 2-(triphenylmethyloxy)ethanol] | excellent inhibitory effects on melanin production |
| OCC(O)COC(c1ccccc1)(c1ccccc1)c1ccccc1 (stereo not drawn) [Compound 38, 1,2-dihydroxy-3-(triphenylmethyloxy)propane] | excellent inhibitory effects on melanin production |
| COc1ccc(C(c2ccccc2)(c2ccc(OC)cc2)N2CCCCC2)cc1 [Compound 20, 1-[[bis(4-methoxyphenyl)phenyl]methyl]piperidine] | excellent inhibitory effects on melanin production |
| COc1ccc(C(OCCN)(c2ccccc2)c2ccc(OC)cc2)cc1 [Compound 36, 2-[[bis(4-methoxyphenyl)phenyl]methyloxy]ethylamine] | excellent inhibitory effects on melanin production |
| c1ccc(C(c2ccccc2)N2CCCC2)cc1 [Compound 28, 1-(diphenylmethyl)pyrrolidine] | excellent inhibitory effects on melanin production |
| COc1ccc(C(O)(c2ccccc2)c2ccccc2)cc1 [Compound 17, [diphenyl(4-methoxyphenyl)]methanol] | excellent inhibitory effects on melanin production |
